Source: patent US20210206875A1, “ERBB-2 TARGETING AGENT AND A BISPECIFIC ANTIBODY WITH ANTIGEN-BINDING SITES THAT BIND AN EPITOPE ON AN EXTRACELLULAR PART OF ERB-2 AND ERBB-3, FOR TREATMENT OF AN INDIVIDUAL WITH AN ERBB-2, ERBB-2/ERBB-3 POSITIVE TUMOUR” (Merus N.V., priority 2017, published 2021)
At least one structure is not confirmed: it was looked up by name or label, or the drawing left a doubt.

Test system: HER2 overexpressing cells (SK-BR-3, BT-474, N87)
Assay: Drug combinations with PB4188 in vitro (isobolograms)
Type: cell-based, human
Settings: in the presence of HRG, matrigel or HRG stress concentrations
Description: Moreover, combination with chemotherapeutic drugs and cyclin inhibitors were tested. Combinations were tested on HER2 overexpressing cells growing in the presence of HRG in matrigel (SK-BR-3 and BT-474) or in the presence of HRG stress concentrations (N87 and SK-BR-3 as described in proliferation assays). The inhibitory effect of drug combinations was tested by imaging or by measuring proliferation using Alamar Blue as described herein before. […] The extent of growth inhibition obtained with each combination was calculated. […] The inhibition values of the combination experiments were used by CHALICE™ Analyzer software to generate the isobolograms.

CN(C)C/C=C/C(=O)Nc1cc2c(Nc3ccc(F)c(Cl)c3)ncnc2cc1O[C@H]1CCOC1 [afatinib]
drug combination with PB4188 (isobologram analysis): synergistic
